Experimental findings from the supplement of paper PMC3682954 are described below.

SMILES strings stand for the structures. Counter-ions that a name gives are not always drawn. ± gives the standard deviation of the averaged measurements. The list shows a part of the results. Many values rest on one well or one pass, so single values are uncertain.

The test system of this test is RAW 264.7. Kind of test: HMGB1-induced TNF-alpha production relative to HMGB1-stimulated control; higher = more TNF-alpha secretion (less inhibition). Particulars: stimulus: HMGB1 5 ug/ml, 18 h.

As for `Nc1nc(N)nc(-c2cc(Cl)ccc2Cl)n1` [Irsogladine], the “HMGB1-induced TNF-alpha production” value (compound concentration: 3 uM) stood at 94.5%.

On to `Nc1nc(N)nc(-c2cc(Cl)ccc2Cl)n1`, for which, where the note is “compound concentration: 3 uM”, the “HMGB1-induced TNF-alpha production” value was 90.6%.

Regarding `Nc1nc(N)nc(-c2cc(Cl)ccc2Cl)n1` [Irsogladine Maleate], for the setting “compound concentration: 3 uM”, the “HMGB1-induced TNF-alpha production” value is 98.3%.

As for `CCN1CCCC1CNC(=O)c1cc(S(=O)(=O)CC)c(N)cc1OC` (stereo unspecified) [Amisulpride], the “HMGB1-induced TNF-alpha production” value (compound concentration: 3 uM) was determined as 107 ± 8%.

On to `COc1cc2oc(=O)cc(C)c2cc1OC` [6,7-Dimethoxy-4-methylcoumarin], for which the “HMGB1-induced TNF-alpha production” value (compound concentration: 1 ug/ml) amounted to 69.9%.

With `CCc1c(C(=O)NCCc2ccc(N3CCCCC3)cc2)[nH]c2ccc(Cl)cc12`, the “HMGB1-induced TNF-alpha production” value (compound concentration: 3 uM) turned out to be 108%.

For `CC(C)[C@H]1CC[C@H](C(=O)N[C@H](Cc2ccccc2)C(=O)O)CC1`, where the note is “compound concentration: 3 uM”, the “HMGB1-induced TNF-alpha production” value is 91.9 ± 25%.

`CC(C)[C@H]1CC[C@H](C(=O)N[C@H](Cc2ccccc2)C(=O)O)CC1` [Nateglinide]: the “HMGB1-induced TNF-alpha production” value (compound concentration: 3 uM) was found to be 123%.

On to `COc1c(O)cc2c(c1O)[C@@H]1O[C@H](CO)[C@@H](O)[C@H](O)[C@H]1OC2=O`, for which, where the note is “compound concentration: 3 uM”, the “HMGB1-induced TNF-alpha production” value is 77.3%.

Turning to `CC(=O)Oc1cccc(C(=O)O)c1OC(C)=O`, the “HMGB1-induced TNF-alpha production” value (compound concentration: 3 uM) turned out to be 80.2%.

Turning to `COc1ccc(CCCOC(Cn2ccnc2)c2ccc(OC)cc2)cc1` (stereo unspecified), the “HMGB1-induced TNF-alpha production” value (compound concentration: 3 uM) was found to be 90.7%.

Consider `CC(C)c1nc(CN(C)C(=O)N[C@H](C(=O)N[C@@H](Cc2ccccc2)C[C@H](O)[C@H](Cc2ccccc2)NC(=O)OCc2cncs2)C(C)C)cs1`, for which, for the setting “compound concentration: 3 uM”, the “HMGB1-induced TNF-alpha production” value is 112%.

On to `CCCOC(=O)c1c(-c2ccccc2)nc(CC)c(C(=O)SCC)c1CCC`, for which, for the setting “compound concentration: 3 uM”, the “HMGB1-induced TNF-alpha production” value was determined as 93.5%.

Regarding `COc1ccccc1OCCNCC(O)COc1cccc2[nH]c3ccccc3c12` (stereo unspecified), the “HMGB1-induced TNF-alpha production” value (compound concentration: 3 uM) was found to be 79.2%.

In the case of `COc1ccccc1OCCNCC(O)COc1cccc2[nH]c3ccccc3c12` (stereo unspecified) [Carvedilol], the “HMGB1-induced TNF-alpha production” value (compound concentration: 3 uM) was 85.9 ± 9.3%.

On to `O=C(NCC1CCCCN1)c1cc(OCC(F)(F)F)ccc1OCC(F)(F)F` (stereo unspecified) [Flecainide], for which the “HMGB1-induced TNF-alpha production” value (compound concentration: 3 uM) came out at 104%.

As for `O=C(NCC1CCCCN1)c1cc(OCC(F)(F)F)ccc1OCC(F)(F)F` (stereo unspecified) [Flecainide acetate], the “HMGB1-induced TNF-alpha production” value (compound concentration: 3 uM) was determined as 85.4%.

On to `CC1CCc2cc(F)cc3c(=O)c(C(=O)O)cn1c23` (stereo unspecified), for which the “HMGB1-induced TNF-alpha production” value (compound concentration: 3 uM) was determined as 105%.

Regarding `CC1CCc2cc(F)cc3c(=O)c(C(=O)O)cn1c23` (stereo unspecified) [Flumequine], the “HMGB1-induced TNF-alpha production” value (compound concentration: 3 uM) is 69.6%.

For the molecule `CC1(C)S[C@@H]2[C@H](/N=C/N3CCCCCC3)C(=O)N2[C@H]1C(=O)O`, the “HMGB1-induced TNF-alpha production” value (compound concentration: 3 uM) amounted to 127%.

`CCCCOc1ccc(OCCCN2CCOCC2)cc1` [Pramoxine hydrochloride]: the “HMGB1-induced TNF-alpha production” value (compound concentration: 3 uM) was determined as 101%.

With `CCCCOc1ccc(OCCCN2CCOCC2)cc1`, the “HMGB1-induced TNF-alpha production” value (compound concentration: 3 uM) was 81.2%.

Turning to `Cc1nc2c(OCc3ccccc3)cccn2c1CC#N`, the “HMGB1-induced TNF-alpha production” value (compound concentration: 3 uM) was 75.5%.

As for `CCOC(=O)C1=C(C)NC(C)=C(C(=O)OC)C1c1cccc([N+](=O)[O-])c1` (stereo unspecified) [Nitrendipine], the “HMGB1-induced TNF-alpha production” value (compound concentration: 3 uM) was found to be 83.7 ± 12%.

As to `CCOC(=O)C1=C(C)NC(C)=C(C(=O)OC)C1c1cccc([N+](=O)[O-])c1` (stereo unspecified), under “compound concentration: 3 uM”, the “HMGB1-induced TNF-alpha production” value was 89.5 ± 28%.

`CC1(C)S[C@@H]2[C@H](N3C(=O)[C@@H](c4ccccc4)NC3(C)C)C(=O)N2[C@H]1C(=O)O`: under “compound concentration: 3 uM”, the “HMGB1-induced TNF-alpha production” value was 90.9%.
